In patent US4119724A, “Fungicidal compositions containing phosphorous acid and derivatives thereof” (Pepro, priority 1973, dated 1978):
Some entries share one result that the patent states for a list of compounds.

What was measured:
[1] = tested on: Plasmopara viticola; assay: In vivo test on vine plants, preventive treatment; conditions: 0.5 g/l, leaves sprayed 48 hours before contamination, inspected 9 days after infestation
[2] = tested on: Plasmopara viticola; assay: Systemic test by root absorption on vine mildew; type: in vivo; conditions: 0.5 g/l, absorbed by the roots, assessed after about 9 days
[3] = tested on: Plasmopara viticola; assay: In vivo test on vine plants, treatment after contamination; conditions: 1 g/l, inspected 9 days after contamination

Substance: acid sodium or monosodium phosphite [Compound 2]
- protection (preventive treatment) [1]: total protection
- protection by root absorption (systemic) [2]: total protection
- stop of the development of mildew (treatment after contamination) [3]: completely stop the development of mildew
